# Test results taken from PubChem BioAssay AID1671190 (National Center for Advancing Translational Sciences (NCATS), 2021).
# Chains of the proteins cited; added tags and fusions are not shown.
# UniProt P18054, whole entry, looked up: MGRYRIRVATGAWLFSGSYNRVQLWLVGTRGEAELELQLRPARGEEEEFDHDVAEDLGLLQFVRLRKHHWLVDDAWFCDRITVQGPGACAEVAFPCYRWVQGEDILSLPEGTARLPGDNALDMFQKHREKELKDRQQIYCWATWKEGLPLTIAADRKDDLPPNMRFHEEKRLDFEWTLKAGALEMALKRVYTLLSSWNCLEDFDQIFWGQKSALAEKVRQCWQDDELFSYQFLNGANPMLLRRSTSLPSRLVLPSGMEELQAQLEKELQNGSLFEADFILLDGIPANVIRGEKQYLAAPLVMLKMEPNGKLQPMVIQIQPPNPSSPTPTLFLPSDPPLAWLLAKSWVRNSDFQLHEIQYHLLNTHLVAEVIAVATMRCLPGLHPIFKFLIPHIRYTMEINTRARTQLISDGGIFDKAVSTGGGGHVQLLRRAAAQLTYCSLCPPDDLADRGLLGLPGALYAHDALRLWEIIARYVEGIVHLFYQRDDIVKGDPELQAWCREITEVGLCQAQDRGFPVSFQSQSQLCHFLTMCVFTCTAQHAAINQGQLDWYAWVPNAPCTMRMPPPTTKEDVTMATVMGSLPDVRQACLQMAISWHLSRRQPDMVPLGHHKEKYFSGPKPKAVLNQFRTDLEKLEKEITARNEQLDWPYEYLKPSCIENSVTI
# “And” between values parts separate entries of the source, which are not always exact repeats. Identical values can stand only once. Hit rate of the full screen: of about 580,000 compounds, about 6,100 (1.1%) were called active. This list was built around the results that the source calls inconclusive (neither active nor inactive); the mix of calls is not that of the screen. Calls come from the whole dose curve; as a rule, active = well fitted inhibition curve with a large enough effect; inconclusive = small, poorly fitted or top-dose-only effect, or another doubt; inactive = no such curve, though single readings can be large or run the other way. Potencies beside an inconclusive call are fits to weak or partial responses and may not hold up.
# Target: Polyunsaturated fatty acid lipoxygenase ALOX12 (Homo sapiens) (UniProt P18054)
# Experiment: Primary qHTS assay for inhibitors of human arachidonate 12S-lipoxygenase (ALOX12): Round 2
# Details: purified 12hLO, xylenol orange hydroperoxide absorbance; series mostly up to 108 µM
# Outline: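 Purified human 12hLO (150 nM final) in 25 mM Hepes, 0.01% Triton X-100, pH 7.0 was preincubated 15 min at room temperature with compound. Then 40 uM arachidonic acid was added, 30 min. Hydroperoxide was read by Fe-XO absorbance ratio 573/405 nm.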
# Potency is the fitted concentration of half-maximal effect.
row,Structure (SMILES),Potency
1,CC(=O)NCCNC(=O)c1ccc2ccccc2n1,inactive
2,COC/C=C/C1=CC2=CC(=O)C(C)(OC(=O)c3cnc4ccccc4n3)C(=O)C2=CN1c1ccccc1 (stereo not drawn),"inconclusive: 10 µM [inhibitor, full curve, poor fit]"
3,Cc1ccc(Cn2cc(CN3CC(N4CCN(C)CC4)CS3(=O)=O)nn2)cc1 (stereo not drawn),"inconclusive: 1.26 µM [inhibitor, full curve, poor fit]"
4,COc1cc(C(=O)O/N=C(\C)c2ccc(Cl)cc2)cc(OC)c1OC,inactive
5,CC(=O)N(Cc1cccnc1)c1nc2c(F)cc(F)cc2s1,inactive
6,CCNC(=O)C1CCCN(Cc2cc(-c3ccccc3)on2)CC1 (stereo not drawn),"inconclusive: 50.1 µM [inhibitor, partial curve, poor fit]"
7,CN(C)C(=O)c1cccc(-c2cccc(-c3nc(C(=O)NCc4ccccc4)cc4c3[C@@H](CCO)N(S(=O)C(C)(C)C)C4)c2)c1 (stereo partly drawn),"inconclusive: 31.6 µM [inhibitor, single point]"
8,NC(=O)CC[C@@H]1NC(=O)[C@H](CO)NC(=O)c2cc([N+](=O)[O-])cc(I)c2NCCC[C@@H](C(N)=O)NC(=O)[C@H](Cc2ccc(O)cc2)NC1=O,"inconclusive: 50.1 µM [inhibitor, partial curve, poor fit]"
9,O=C(O)CCN1C(=O)C(=C2CCCCCC2)SC1=S,"inconclusive: 4.47 µM [inhibitor, single point]"
10,Cc1cccc(C)c1NC(=O)CCc1c[nH]c2ccccc12,inactive
11,COCc1nc2ccccc2n1Cc1c(F)cccc1Cl,inactive
12,Cc1ccc(S(=O)(=O)NCCCNS(=O)(=O)c2ccc(C)cc2)cc1,"inconclusive: 50.1 µM [inhibitor, partial curve, poor fit]"
13,CCN(CC)c1ccc(N=Cc2ccccc2[N+](=O)[O-])cc1,"inconclusive: 89.1 µM [inhibitor, partial curve, poor fit]"
14,CN1CC(=O)N(C2CCCNCC2)Cc2c(NC3CCCC3)ncnc21 (stereo not drawn),"inconclusive: 3.55 µM [inhibitor, full curve]"
15,O=C(CSc1nnc(-c2ccncc2)n1Cc1ccccc1)Nc1nccs1,"inconclusive: 44.7 µM [inhibitor, partial curve, poor fit]"
16,O=C(/C=C/c1ccc(O)c(O)c1)NC(=O)c1ccccc1O,active: 2.51 µM and active: 39.8 µM
17,CC(C)CC(NC(=O)/C(=C/c1ccccc1)NC(=O)c1ccccc1)C(=O)O (stereo not drawn),"inconclusive: 12.6 µM [inhibitor, partial curve, poor fit]"
18,CC(=O)N1CCN(c2nc(CC(C)C)c3c(c2C#N)CCC3)CC1,inactive
19,Nc1ncnc2c1ncn2[C@@H]1O[C@H](C(=O)N2CCN(c3ccc(Cl)cn3)CC2)[C@@H](O)[C@H]1O,"inconclusive: 39.8 µM [inhibitor, single point]"
20,CN(Cc1ccc(-c2ccccc2)cc1)Cc1ccccn1,inactive
21,CCCCCCNC(=O)O[C@H]1CN(C(=O)OC(C)C)N(C(=O)OC(C)C)[C@@H]2CN(S(=O)(=O)c3ccc(C)cc3)C[C@]12O,"inconclusive: 35.5 µM [inhibitor, partial curve, poor fit]"

row,Structure (SMILES),Potency
1,COc1cccc(C(N)=O)c1OCc1ccc(C)cc1,"inconclusive: 126 µM [inhibitor, single point]"
2,Cc1cccc(NC(=O)CN2C(=O)S/C(=C\c3ccc(O)c([N+](=O)[O-])c3)C2=O)c1,"inconclusive: 35.5 µM [inhibitor, partial curve, poor fit]"
3,COC(=O)CNC(=O)Cn1ccc2ccc(OCc3ccccc3)cc21,"inconclusive: 50.1 µM [inhibitor, single point]"
4,Cc1ccc(C(=O)NC(=S)NNC(=O)COc2ccccc2C)cc1,inactive
5,CCOC(=O)C1C(C(=O)OC)=C(c2ccc(OC)cc2)c2ccccc2N1S(=O)(=O)C(F)(F)F (stereo not drawn),"inconclusive: 126 µM [inhibitor, single point]"
6,CCc1ccccc1NC(=O)Cn1nnc(C(=O)NCc2ccccc2Cl)c1N,"inconclusive: 112 µM [inhibitor, single point]"
7,COc1ccc(Nc2nc(=O)c3cc([N+](=O)[O-])ccc3s2)cc1,"inconclusive: 50.1 µM [inhibitor, single point]"
8,Oc1ccc(/C=C(/Cl)c2ncc(-c3ccc(F)cc3)o2)cc1,"inconclusive: 28.2 µM [inhibitor, partial curve, poor fit]"
9,COc1cccc2c1OCC/C2=N\NC(=O)C(C)Oc1ccc([N+](=O)[O-])cc1 (stereo not drawn),"inconclusive: 0.251 µM [inhibitor, full curve, poor fit]"
10,COc1cc2c(cc1OC)C1(CCCC1)C(N)=C2C#N,"inconclusive: 14.1 µM [inhibitor, full curve, poor fit]"
11,N#Cc1ccc(OCc2cccc(C(F)(F)F)c2)cc1,"inconclusive: 39.8 µM [inhibitor, partial curve, poor fit]"
12,CN(CC1CCOCC1)C(=O)c1cc(F)cc(F)c1,inactive
13,CCN(CC)c1ccc(S(=O)(=O)N2CCOCC2)cc1NC(=O)Nc1ccccc1,"inconclusive: 39.8 µM [inhibitor, partial curve, poor fit]"
14,Cc1ccc(C)c(NC(=O)CSCc2cc(C)no2)c1,inactive
15,CC1C(=O)N(Cc2cn(Cc3ccco3)nn2)CCS(=O)(=O)N1Cc1ccc(-c2cccc(CO)c2)cc1 (stereo not drawn),"inconclusive: 50.1 µM [inhibitor, partial curve, poor fit]"
16,COc1cccc(NC(=O)CN(C)C(=O)Cc2ccc(Cl)cc2Cl)c1,"inconclusive: 44.7 µM [inhibitor, partial curve]"
17,CC1CCN(CCNC(=O)c2n[nH]c(=O)c3ccccc23)CC1,inactive
18,CNC(=O)NC(=O)C(C)Sc1ccc(Br)cc1 (stereo not drawn),"inconclusive: 63.1 µM [inhibitor, single point]"
19,CC(Oc1cccc(Br)c1)C(=O)N1CCCN(C)CC1 (stereo not drawn),"inconclusive: 100 µM [inhibitor, single point]"
20,CN(Cc1ccco1)c1ncncc1-c1cccnc1,"inconclusive: 31.6 µM [inhibitor, partial curve]"
21,COc1ccc(OC)c(-c2nnc(SCC(=O)NC3CCCCC3)o2)c1,inactive

row,Structure (SMILES),Potency
1,O=C(O)CN1C(=O)S/C(=C\c2cn(CC(=O)N3CCOCC3)c3ccccc23)C1=O,"inconclusive: 39.8 µM [inhibitor, partial curve, poor fit]"
2,NC(=O)c1sc2nc3c(c(-c4ccc(Cl)cc4)c2c1N)CCCC3,"inconclusive: 126 µM [inhibitor, partial curve, poor fit]"
3,COc1ccc(C(NC(=O)/C=C/c2ccco2)c2ccc(OC)cc2)cc1,active: 44.7 µM
4,O=C1NCc2ccccc2CC12CCN(Cc1ccccc1Br)C2 (stereo not drawn),"inconclusive: 79.4 µM [inhibitor, single point]"
5,O=C(C[C@H]1C(=O)N(C2CCCCC2)C[C@@H]1c1ccccc1)Nc1ccc(Br)cc1,"inconclusive: 50.1 µM [inhibitor, partial curve, poor fit]"
6,CC1=C(C(=O)N(C)C)CC(CC(=O)NC(c2ccccc2)c2ccccc2)C(=O)N1Cc1ccc(F)cc1 (stereo not drawn),"inconclusive: 112 µM [inhibitor, partial curve, poor fit]"
7,C/C(=N/Nc1ccc(F)cc1F)c1ccc(Cl)c(Cl)c1,"inconclusive: 2.24 µM [inhibitor, full curve, poor fit]"
8,O=c1oc2ccccc2cc1-c1nc2c(s1)CCc1ccccc1-2,"inconclusive: 50.1 µM [inhibitor, partial curve, poor fit]"
9,CCOC(=O)[C@]12CCCC=C1N(Cc1ccc3c(c1)OCO3)C(=O)[C@H](CC(=O)N1CCC(c3ccccc3)CC1)C2,inactive
10,Cc1cccc(C(=O)N[C@H](C(=O)OCc2cc(=O)n3c(n2)sc2ccccc23)C(C)C)c1,"inconclusive: 50.1 µM [inhibitor, partial curve, poor fit]"
11,Cc1cc(C)cc(NC(=O)CSc2cc(C)[nH]c(=O)n2)c1,inactive
12,CCC1(N2CCN(S(=O)(=O)c3ccc(F)c(C)c3)CC2)CCN(S(C)(=O)=O)C1 (stereo not drawn),"inconclusive: 70.8 µM [inhibitor, partial curve, poor fit]"
13,CN(CC(=O)Nc1cccc(F)c1)C(=O)CCc1ncc(-c2ccc(Cl)cc2)o1,inactive
14,Cc1ccc(-c2cc(C(=O)O)c3ccc(C)c(C)c3n2)cc1,"inconclusive: 50.1 µM [inhibitor, partial curve, poor fit]"
15,COC(=O)C1=C(C)N(Cc2ccccc2)C(=NCc2ccc3c(c2)OCO3)N[C@H]1c1ccccc1,"inconclusive: 126 µM [inhibitor, single point]"
16,O=C(Cc1c(F)cccc1Cl)c1ccc(O)cc1O,"inconclusive: 44.7 µM [inhibitor, partial curve, poor fit]"
17,CN(c1ccc(O)cc1)c1nc(-c2ccccc2)cs1,"inconclusive: 100 µM [inhibitor, partial curve, poor fit]"
18,O=S(Cc1ccc(Br)cc1)Cc1nnc(SCc2c(F)cccc2Cl)n1-c1ccccc1 (stereo not drawn),"inconclusive: 50.1 µM [inhibitor, partial curve, poor fit]"
19,Cc1ccc(S(=O)(=O)N2CCCCC2)cc1NC(=O)COC(=O)CNC(=O)c1cc(Cl)cc([N+](=O)[O-])c1,inactive
20,CN(Cc1ccccc1)S(=O)(=O)c1ccc(OCC(=O)Nc2cccc([N+](=O)[O-])c2)cc1,inactive
21,N#Cc1ccc(CN2CCC3(CC2)NC(=O)c2ccccc2O3)cc1,"inconclusive: 35.5 µM [inhibitor, full curve]"
